Test system: preterm infants
Test: indicator amino acid oxidation (IAAO) method: phenylalanine requirement in preterm infants
Format: in vivo, human
Excerpt: This example describes the determination of the requirements of the essential amino acid phenylalanine in preterm infants by way of the indicator amino acid oxidation (IAAO) method, and the subsequent definition of the recommended ranges of dietary requirements for this essential amino acid.
In the IAAO method, each infant was fed an amino acid based formula where each essential amino acid was present in excess except the test amino acid phenylalanine. The infant was randomly assigned to receive the test amino acid in an amount ranging from deficient to excess (i.e., each infant was given one specific intake level of the test amino acid for one test period). […]
The IAAO method (Zello, 1993) is based on the concept that when the test amino acid intake is insufficient to meet the infant's requirements, protein synthesis will be limited and all of the amino acids will be oxidised, including the indicator amino acid. Oxidation of the indicator amino acid can be measured in expired air as ^13CO2. […]
Breath samples were collected by means of the direct sampling method described by van der Schoor (2004). […] Expired ^13CO2 enrichment was measured by isotope mass spectrometry (ABCA; Europe Scientific, van Loenen Instruments, Leiden, the Netherlands), and reported in units of atom percent excess (APE). […]

## N[C@@H](Cc1ccccc1)C(=O)O [phenylalanine]
16 preterm infants, 24 test intakes 5 to 177 mg/kg/d, [1-13C]lysine indicator oxidation, biphasic linear regression crossover model
  dietary requirement (breakpoint) for phenylalanine: 80 mg/kg/day
Preterm infants, Table 1
  Breakpoint: 80 mg/kg/day
